Data on one compound can be found in ChEMBL document CHEMBL6074683, “Design, synthesis and investigation of biological activity and mechanism of fluoroaryl-substituted derivatives at the FL118 position 7” (Eur J Med Chem, 2025).

Common to all, as to format: functional, cell-based
For test [1], the system named is A549. Description: Cytotoxicity against human A549 cells incubated for 72 hrs by MTT assay. Conditions: A549, 72 h.
The subject of test [2] is HCT-116. Description: Cytotoxicity against human HCT-116 cells incubated for 72 hrs by MTT assay. Conditions: HCT-116, 72 h.
The subject of test [3] is HeLa. Description: Cytotoxicity against human HeLa cells incubated for 72 hrs by MTT assay.
In test [4] the test system is HepG2. Description: Cytotoxicity against human HepG2 cells incubated for 72 hrs by MTT assay. Conditions: HepG2, 72 h.

Consider `CC[C@@]1(O)C(=O)OCc2c1cc1n(c2=O)Cc2c-1nc1cc3c(cc1c2-c1ccc(F)c(OC)c1)OCO3`, for which the IC50 in test [1] was 0.0337 µM; in test [2], 0.0361 µM; in test [3], 0.0729 µM; in test [4], 0.137 µM.
